Data from patent publication US20200071378A1.
No constants are given. Whether binding was seen depends on the method and setting. Some entries that bind do so weakly or less than the wild type.

Target: T1, recombinant murine OX40 protein (plate-bound) (murine) (UniProt P47741)
T1 sequence (looked up): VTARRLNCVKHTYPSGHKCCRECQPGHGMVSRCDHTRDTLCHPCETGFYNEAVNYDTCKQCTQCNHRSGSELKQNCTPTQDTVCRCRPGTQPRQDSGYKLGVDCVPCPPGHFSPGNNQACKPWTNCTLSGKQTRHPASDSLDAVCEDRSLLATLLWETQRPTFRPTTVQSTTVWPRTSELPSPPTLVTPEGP
Assay: ELISA 'Binding to OX40', standard curve: plate-bound recombinant murine OX40, detection with anti-OX40L plus an HRP detection antibody; the axis is a dilution

B1: mOX40L Standard (ligand)
chain: SSSPAKDPPIQRLRGAVTRCEDGQLFISSYKNEYQTMEVQNNSVVIKCDGLYIIYLKGSFFQEVKIDLHFREDHNPISIPMLNDGRRIVFTVVASLAFKDKVYLTVNAPDTLCEHLQINDGELIVVQLTPGYCAPEGSYHSTVNQVPL
- binding: binds
